From patent US20210147525A1 (University of California, published 2021)

B1: 4-G12 (antibody, V domains shown)
VH: EVQLLESGGGLVRPGGSLRLSCAASGFTFSSYAMSWVRQAPGKGLEWVSAISGSGGSTYYADSVKGRFTISRDNSKNTLYLQMNSLRAEDTAVYYCARDKRLTYWGQGTMVTVSS
VL: QSVVTQPPSVSAAPGQKVTISCSGSSSNIGNNYVSWYQQLPGTAPKLLIYDNNKRPSGIPDRFSGSKSGTSATLGITGLQTGDEADYYCGTWDSSLSARVFGGGTKVTVL
B2: 3-C6 (antibody, V domains shown)
VH: EVQLLESGGGLVQPGGSLRLSCAASGFTFSTYAMSWVRQAPGKGLEWVSTIYGSGGRTYYADSVKGRFTISRDNSKNTLYLQMNSLRAEDTAVYYCARTDHYSYYVMDYWGQGTLVTVSS
VL: DIQMTQSPSSLSASVGDRVTITCRASQSISKYLNWYQQKPGKAPKLLIYSASSLQSGVPSRFSGSGSGTDFTLTISSLQPEDCATYYCQQSYSFPLTFGQGTKVEIK
B3: 3-C11 (antibody, V domains shown)
VH: EVQLLESGGGLVQPGGSLRLSCAASGFTFSSYAMSWVRQAPGKGLEWVSTIYASGATTYYADSVKGRFTISRDNSKNTLYLQMNSLRAEDTAVYYCARLKLYHAAFDIWGQGTLVTVSS
VL: B2 VL with S28D, K31S, S50T, C83F, F94Y
B4: 3-E9 (antibody, V domains shown)
VH: EVQLLESGGGLVQPGGSLRLSCAASGFTFRSYAMSWVRQAPGKGLEWVSTIYGTGEDTYYADSVKGRFTISRDNSKNTLYLQMNSLRAEDTAVYYCARDYFWSPRGSIYDYDYFDVWGQGTLVTVSS
VL: B2 VL with K31R, C83F, S91Y, Y92F, F94A, L96Y
B5: 3-G4 (antibody, V domains shown)
VH: EVQLLESGGGLVQPGGSLRLSCAASGFTFSTYAMSWVRQAPGKGLEWVSGISAGGGARTYYADSVKGRFTISRDNSKNTLYLQMNSLRAEDTAVYYCARVHHFGYYSLDVWGQGTLVTVSS
VL: B2 VL with S28T, K31N, S50A, C83F, S93T, F94Y
B6: 3-G5 (antibody, V domains shown)
VH: EVQLLESGGGLVQPGGSLRLSCAASGFTFSSYAMSWVRQAPGKGLEWVSVIYGSGGRTYYADSVKGRFTISRDNSKNTLYLQMNSLRAEDTAVYYCARHDPRYQLDVWGQGTLVTVSS
VL: B2 VL with S30G, K31S, S50T, C83F, S93T, F94Y
B7: 3-C9 (antibody, V domains shown)
VH: EVQLLESGGGLVQPGGSLRLSCAASGFTFGNYAMSWVRQAPGKGLEWVSVISGGGTNTYYADSVKGRFTISRDNSKNTLYLQMNSLRAEDTAVYYCARSDSYYGVYDGYYYGMDVWGQGTLVTVSS
VL: B2 VL with S28T, K31R, Y36H, S50A, C83F, S91T, F94T, L96W
B8: 3-G6 (antibody, V domains shown)
VH: QVQLVESGGGVVQPGRSLRLSCAASGFTFSDYGMHWVRQAPGKGLEWVAVISYDGSRKYYANSVKGRFTISRDNSKNTLYLQMNSLRAEDTAVYYCARGSYSDGFDVWGQGTLVTVSS
VL: B2 VL with K31R, P40T, S50G, C83F, F94T, L96Y
B9: 3-C8 (antibody, V domains shown)
VH: EVQLLESGGGLVQPGGSLRLSCAASGFTFSDYAMSWVRQAPGKGLEWVSAIYGSGSYTYYADSVKGRFTISRDNSKNTLYLQMNSLRAEDTAVYYCARTAYSYPYVYFDFWGQGTLVTVSS
VL: B2 VL with S28T, S30T, K31S, S50A, C83F, S93T, F94Y
B10: 3-G8 (antibody, V domains shown)
VH: EVQLLESGGGLVQPGGSLRLSCAASGFTFSNYAMSWVRQAPGKGLEWVSAIYGSGGKTYYADSVKGRFTISRDNSKNTLYLQMNSLRAEDTAVYYCARLKYGFYQFDYWGQGTLVTVSS
VL: B2 VL with S30R, K31N, Q37E, S50A, C83F, F94Y
B11: 3-D6 (antibody, V domains shown)
VH: QVQLVQSGAEVKKPGSSVKVSCKASGGTFTSYGIHWVRQAPGQGLEWMGRIVPILGTTNYAQKFQGRVTITADESTSTAYMELSSLRSEDTAVYYCARDPAVTLDTYVYADHGFDVWGQGTLVTVSS
VL: EIVMTQSPATLSVSPGERATLSCRASQSVYNNLAWYQQKPGQAPRLLIYGASTRATGIPARFSGSGSGTEFTLTISSLQSEDFAVYYCQQYNDWPLTFGQGTKVEIK
B12: 3-G7 (antibody, V domains shown)
VH: QVQLVQSGAEVKKPGSSVKVSCKASGGTFSTEYISWVRQAPGQGLEWMGRIIPVLGITNYAQKFQGRVTITADESTSTAYMELSSLRSEDTAVYYCARHLGPPYLVTYSHGFDVWGQGTLVTVSS
VL: B11 VL with V29L, Y30G, N31T, N92Y, D93E, W94A, L96P
B13: 5-E12 (antibody, V domains shown)
VH: EVQLLESGGGLVQPGGSLRLSCAASGFTFSNYAMSWVRQAPGKGLEWVSTISGGGRTTNYADSVKGRFTISRDNSKNTLYLQMNSLRAEDTAVYYCARSTPIPSYYPYIYSYYFDVWGQGTLVTVSS
VL: B11 VL with Y30S, N92G, D93N, W94Y, L96P
B14: 3-H4 (antibody, V domains shown)
VH: EVQLLESGGGLVQPGGSLRLSCAASGFTFSNYAMSWVRQAPGKGLEWVSAISGSGGTTYYADSVKGRFTISRDNSKNTLYLQMNSLRAEDTAVYYCARIKKYGSAGYTVGFDSWGQGTLVTVSS
VL: B11 VL with Y30G, N31S, N32Y, N92Y, D93N, W94A, L96I
B15: 3-E7 (antibody, V domains shown)
VH: EVQLLESGGGLVQPGGSLRLSCAASGFTFSNYAMSWVRQAPGKGLEWVSGISASGGGTYYADSVKGRFTISRDNSKNTLYLQMNSLRAEDTAVYYCARSSRYGDTFDVWGQGTLVTVSS
VL: B11 VL with Q27L, Y30G, N31S, D93N, W94L
B16: 4-A7 (antibody, V domains shown)
VH: QLQLQESGPGLVKPSETLSLTCTVSGGSISSSSYYWGWIRQPPGKGLEWIGNIYYTGTTYYNPSLKSRVTISVDTSKNQFSLKLSSVTAADTAVYYCARIKVPWYYSSYYFDYWGQGTLVTVSS
VL: QSVLTQPPSVSGAPGQRVTISCTGSSSNIGAGYDVHWYQQLPGTAPKLLIYGNKNRPSGVPDRFSGSKSGTSASLAITGLQAEDEADYYCQSYDTSLSAWVFGGGTKLTVL
B17: 4-A8 (antibody, V domains shown)
VH: EVQLLESGGGLVQPGGSLRLSCAASGFTFKNYAMSWVRQAPGKGLEWVSAISASGGYTYYADSVKGRFTISRDNSKNTLYLQMNSLRAEDTAVYYCARGRWGAFDYWGQGTLVTVSS
VL: B16 VL with A31S, K54R, T95S, S98K, A99T
B18: 4-F4 (antibody, V domains shown)
VH: QLQLQESGPGLVKPSETLSLTCTVSGGSISSRGYYWAWIKQPPGKGLEWIGSIYYSGSTYYNPSLKSRVTISVDTSKNQFSLKLSSVTAADTAVYYCARLVSYGAYYVFDYWGQGTLVTVSS
VL: B16 VL with K54R, S96R
B19: 6-H5 (antibody, V domains shown)
VH: EVQLLESGGGLVQPGGSLRLSCAASGFTFSNYAMSWVRQAPGKGLEWVSAISATGGATYYADSVKGRFTISRDNSKNTLYLQMNSLRAEDTAVYYCARSVRERYTYYMDYWGQGTLVTVSS
VL: B16 VL with G52D, K54T, T95V, S98G, A99V
B20: 4-B1 (antibody, V domains shown)
VH: EVQLLESGGGLVQPGGSLKLSCAASGFTFSDYAMSWVRQAPGKGLEWVSGISRGGARTYYADSVKGRFTISRDNSKNTLYLQMNSLRAEDTAVYYCARYLFGHYMDWGQGTLVTVSS
VL: B16 VL with K54T, T95G, S96R, S98G, A99V, W100S
B21: 4-B11 (antibody, V domains shown)
VH: QVQLVESGGGVVQPGRSLRLSCAASGFAFSGYGMHWVRQAPGKGLEWVAVISHHGSYKYYANSVKGRFTISRDNSKNTLYLQMNSLRAEDTAVYYCARGGADVGYFYSTFYYYMDVWGQGTLVTVSS
VL: B16 VL with G32A, Y33F, G52D, K54Y, T95S, A99V
B22: 6-G4 (antibody, V domains shown)
VH: EVQLLESGGGLVQPGGSLRLSCAASGFTFSDYAMSWVRQAPGKGLEWVSSISSSGANTYYADSGKGRFTISRDNSKNILYLQMNSLRAEDTAVYYCARSVVTWVTYAFDYWGQGTLVTVSS
VL: B16 VL with G52D, K54T, T95S, S96G, A99G
B23: 3-D3 (antibody, V domains shown)
VH: EVQLLESGGGLVQPGGSLRLSCAASGFTFSNYAMSWVRQAPGKGLEWVSTIYESGGYTYYADSVKGRFTISRDNSKNTLYLQMNSLRAEDTAVYYCARVESYGYGEYITYNYYGFDVWGQGTLVTVSS
VL: EIVLTQSPGTLSLSPGERATLSCRASQSVATGYLAWYQQKPGQAPRLLIYGASSRATGIPDRFSGSGSGTDFTLTISRLEPEDFAVYYCQQYESSPPFTFGQGTKVEIK
B24: 4-B2 (antibody, V domains shown)
VH: QVQLVESGGGVVQPGRSLRLSCAASGFTFSRYAMHWVRQAPGKGLEWVAVISHSGSTKYYANSVKGRFTISRDNSKNTLYLQMNSLRAEDTAVYYCARSRGWRGFDSWGQGTLVTVSS
VL: QSVLTQPPSVSGAPGQRVTISCTGSSSNIGAYVVHWYQQLPGTAPKLLIYGNTNRPSGVPDRFSGSKSGTSASLAITGLQAEDEADYYCQSYDRTLSSYVFGGGTKLTVL

target: human PLXDC1 protein, biotinylated (bait of the antibody library screen) (human); assay: antibody library screen on biotinylated PLXDC1 with activating compound

Row | binding | Binder
1 | binds | B1
2 | binds | B2
3 | binds | B3
4 | binds | B4
5 | binds | B5
6 | binds | B6
7 | binds | B7
8 | binds | B8
9 | binds | B9
10 | binds | B10
11 | binds | B11
12 | binds | B12
13 | binds | B13
14 | binds | B14
15 | binds | B15
16 | binds | B16
17 | binds | B17
18 | binds | B18
19 | binds | B19
20 | binds | B20
21 | binds | B21
22 | binds | B22
23 | binds | B23
24 | binds | B24

Residue numbers refer to the chain shown, from its start. Results are given in words; binding and its absence hold for the method and conditions named. Binding calls can cover weak binding; strength is not graded here.
